{"source": "paper doi:10.1101/2021.12.23.473878", "binders": {"B1": {"name": "PKD2 truncation mutant A594X (domain or fragment, UniProt Q13563 1-593)", "chain": "MVNSSRVQPQQPGDAKRPPAPRAPDPGRLMAGCAAVGASLAAPGGLCEQRGLEIEMQRIRQAAARDPPAGAAASPSPPLSSCSRQAWSRDNPGFEAEEEEEEVEGEEGGMVVEMDVEWRPGSRRSAASSAVSSVGARSRGLGGYHGAGHPSGRRRRREDQGPPCPSPVGGGDPLHRHLPLEGQPPRVAWAERLVRGLRGLWGTRLMEESSTNREKYLKSVLRELVTYLLFLIVLCILTYGMMSSNVYYYTRMMSQLFLDTPVSKTEKTNFKTLSSMEDFWKFTEGSLLDGLYWKMQPSNQTEADNRSFIFYENLLLGVPRIRQLRVRNGSCSIPQDLRDEIKECYDVYSVSSEDRAPFGPRNGTAWIYTSEKDLNGSSHWGIIATYSGAGYYLDLSRTREETAAQVASLKKNVWLDRGTRATFIDFSVYNANINLFCVVRLLVEFPATGGVIPSWQFQPLKLIRYVTTFDFFLAACEIIFCFFIFYYVVEEILEIRIHKLHYFRSFWNCLDVVIVVLSVVAIGINIYRTSNVEVLLQFLEDQNTFPNFEHLAYWQIQFNNIAAVTVFFVWIKLFKFINFNRTMSQLSTTMSRC"}, "B2": {"name": "PKD2 fragment N580-L700 (domain or fragment, UniProt Q13563 580-700)", "chain": "NRTMSQLSTTMSRCAKDLFGFAIMFFIIFLAYAQLAYLVFGTQVDDFSTFQECIFTQFRIILGDINFAEIEEANRVLGPIYFTTFVFFMFFILLNMFLAIINDTYSEVKSDLAQQKAEMEL"}, "B3": {"name": "endogenous PKD2 of IMCD cells (protein, UniProt O35245 1-966)", "chain": "MVNSRRVQPQPPGDAGRSPAPRASGPGRLVAGGAGLAVPGGLGEQRGLEIEMERIRQAAARDPPAGASASPSPPLSSCSRQAWSRDNPGFEAEEDDDDDEVEGEEGGMVVEMDVEWRPGSRRSASSSAVSSVGARGRGLGSYRGAAHLSGRRRRLEDQGAQCPSPAGGGDPLHRHLPLEGQPPRVAWAERLVRGLRGLWGTRLMEESNANREKYLKSVLRELVTYLFFLVVLCILTYGMMSSNVYYYTRTLSQLFIDTPVSKTEKTNFKTLSSMEDFWKFTEGSFLDGLYWKAQTSNHTQADNRSFIFYENLLLGVPRLRQLRVRNGSCSIPQDLRDEIKECYDVYSVSSEDRAPFGPRNGTAWMYTSEKELNGSSHWGIIASYSGAGYYLDLSRTREETAAQLAGLRRNFWLDRGTRAAFIDFSVYNANINLFCVVRLLAEFPATGGVVPSWQFQPVKLIRYVTAFDFFLAACEIIFCFFIIYYVVEEILEIRIHRLSYFRSFWNCLDVVIVVLSVVAMVINIYRMSNAEGLLQFLEDQNSFPNFEHVAYWQIQFNNISAVMVFLVWIKLFKFINFNRTMSQLSTTMSRCAKDLFGFTIMFSIIFLAYAQLAYLVFGTQVDDFSTFQECIFTQFRIILGDINFAEIEEANRVLGPLYFTTFVFFMFFILLNMFLAIINDSYSEVKSDLAQQKAEMELSDLIRKGCQKALVKLKLKRNTVDAISESLRQGGGKLNFDELRQDLKGKGHTDAEIEAIFTKYDQDGDQELTEREHQQMRDDLEKEREDLDLEHSSLPRPMSSRSFPRSLDDSEEEDDEDSGHSSRRRGSISSGVSYEEFQVLVRRVDRMEHSIGSIVSKIDAVIVKLEIMERAKLKRREVLGRLLDGVAEDARLGRDSEIHREQMERLVREELERWESDDAASQTGHGVSTQVGLGGQPHPRNPRPPSSQSAEGLEGGGGNGSANVHA"}, "B4": {"name": "human PKD2 gain-of-function mutant F604P (HA-F604P), in Xenopus oocytes (protein, UniProt Q13563 1-968)", "chain": "MVNSSRVQPQQPGDAKRPPAPRAPDPGRLMAGCAAVGASLAAPGGLCEQRGLEIEMQRIRQAAARDPPAGAAASPSPPLSSCSRQAWSRDNPGFEAEEEEEEVEGEEGGMVVEMDVEWRPGSRRSAASSAVSSVGARSRGLGGYHGAGHPSGRRRRREDQGPPCPSPVGGGDPLHRHLPLEGQPPRVAWAERLVRGLRGLWGTRLMEESSTNREKYLKSVLRELVTYLLFLIVLCILTYGMMSSNVYYYTRMMSQLFLDTPVSKTEKTNFKTLSSMEDFWKFTEGSLLDGLYWKMQPSNQTEADNRSFIFYENLLLGVPRIRQLRVRNGSCSIPQDLRDEIKECYDVYSVSSEDRAPFGPRNGTAWIYTSEKDLNGSSHWGIIATYSGAGYYLDLSRTREETAAQVASLKKNVWLDRGTRATFIDFSVYNANINLFCVVRLLVEFPATGGVIPSWQFQPLKLIRYVTTFDFFLAACEIIFCFFIFYYVVEEILEIRIHKLHYFRSFWNCLDVVIVVLSVVAIGINIYRTSNVEVLLQFLEDQNTFPNFEHLAYWQIQFNNIAAVTVFFVWIKLFKFINFNRTMSQLSTTMSRCAKDLFGFAIMPFIIFLAYAQLAYLVFGTQVDDFSTFQECIFTQFRIILGDINFAEIEEANRVLGPIYFTTFVFFMFFILLNMFLAIINDTYSEVKSDLAQQKAEMELSDLIRKGYHKALVKLKLKKNTVDDISESLRQGGGKLNFDELRQDLKGKGHTDAEIEAIFTKYDQDGDQELTEHEHQQMRDDLEKEREDLDLDHSSLPRPMSSRSFPRSLDDSEEDDDEDSGHSSRRRGSISSGVSYEEFQVLVRRVDRMEHSIGSIVSKIDAVIVKLEIMERAKLKRREVLGRLLDGVAEDERLGRDSEIHREQMERLVREELERWESDDAASQISHGLGTPVGLNGQPRPRSSRPSSSQSTEGMEGAGGNGSSNVHV"}}, "assay_in_all_cases": "co-IP", "key": {"[1]": {"target": "T1, TACAN mutant L296-D343 (human) (UniProt Q9BXJ8)", "T1 sequence": "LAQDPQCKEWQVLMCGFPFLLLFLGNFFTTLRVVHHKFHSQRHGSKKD"}, "[2]": {"target": "T2, TACAN mutant K160X (human) (UniProt Q9BXJ8)", "T2 sequence": "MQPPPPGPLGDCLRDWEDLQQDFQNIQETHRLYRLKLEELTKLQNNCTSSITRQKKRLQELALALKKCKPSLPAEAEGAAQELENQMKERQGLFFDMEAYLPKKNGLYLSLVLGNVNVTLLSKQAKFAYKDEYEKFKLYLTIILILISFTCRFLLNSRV"}, "[3]": {"target": "T3, endogenous TACAN of IMCD cells (not stated (endogenous in IMCD cells)) (UniProt Q8C1E7)", "T3 sequence": "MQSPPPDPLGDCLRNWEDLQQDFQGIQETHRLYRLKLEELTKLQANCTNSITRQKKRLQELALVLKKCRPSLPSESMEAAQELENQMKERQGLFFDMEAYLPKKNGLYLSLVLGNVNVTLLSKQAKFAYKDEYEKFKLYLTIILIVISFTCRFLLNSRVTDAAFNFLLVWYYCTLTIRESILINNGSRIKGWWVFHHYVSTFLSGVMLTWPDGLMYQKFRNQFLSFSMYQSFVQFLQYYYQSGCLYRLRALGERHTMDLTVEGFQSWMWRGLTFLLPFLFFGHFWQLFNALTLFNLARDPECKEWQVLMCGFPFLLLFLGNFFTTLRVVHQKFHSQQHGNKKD"}, "[4]": {"target": "T4, TACAN N-terminus (K135X) (human) (UniProt Q9BXJ8)", "T4 sequence": "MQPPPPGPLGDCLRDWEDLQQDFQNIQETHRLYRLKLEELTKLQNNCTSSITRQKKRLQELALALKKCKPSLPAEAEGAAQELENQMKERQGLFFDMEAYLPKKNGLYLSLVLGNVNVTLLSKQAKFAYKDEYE"}}, "note": "These are yes or no findings as the source states them, for the method shown. Binding seen in cells or lysates may run through a third protein. Some entries that bind do so weakly or less than the wild type. For some of these results: Sequences can lack the tags named with a protein."}
{"binder": "B1", "values": [{"measurement": "binding", "setting": "[1]", "value": "binds"}]}
{"binder": "B2", "values": [{"measurement": "binding", "setting": "[2]", "value": "binds"}]}
{"binder": "B3", "values": [{"measurement": "binding", "setting": "[3]", "value": "binds"}]}
{"binder": "B4", "values": [{"measurement": "binding", "setting": "[4]", "value": "no binding"}]}
